This is an account of results in the supplement of paper PMC10338343.

± gives the standard deviation. The list shows a part of the results, in another mix than the full data. Many of these values have a large error.

The experiment relates to EfPiwi piRISC loaded with piRNA #1 (26 nt). The experiment in a line: pre-steady-state target cleavage rate (min^-1); guide: piRNA #1 5'p-UGAGGUAGUAGGUUGUAUAGUAUCCA; MIWI and MILI are mouse PIWI proteins and EfPiwi is from a freshwater sponge; tags in brackets are library labels; higher = faster piRNA-guided slicing of the target. The settings on record: auxiliary factor: 500 nM Ephydatia muelleri Gtsf1. The gist of the method: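 With or without 500 nM GTSF1 partner protein, 1 nM active affinity-purified piRISC carrying one synthetic guide was mixed with 0.1 nM transcribed, DNA-blocked target RNA library in HEPES–potassium acetate buffer at 33 °C for 0–8 or 0–960 min. Uncleaved targets were sequenced and normalised to depth and to weakly complementary targets, three trials were pooled, and k3 was capped at 0.0001 min^-1. The pre-steady-state cleavage rate came from a burst-and-steady-state fit.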
Turning to GGAGACCUAUGAUAUGUUCUUACUACCUCA, the “pre-steady-state target cleavage rate” value is 0.000407 ± 0.0049.

For “GGAGUGGAUACUAUACAACCUACAUGGAGA [g8:g26:cont:t1A]”, the “pre-steady-state target cleavage rate” value was determined as 0.00103 ± 0.0032.

On to GGAGACCUAUGAUUACAACCUUGUACCUCA, for which the “pre-steady-state target cleavage rate” value stood at 0.000314 ± 0.0074.

As for GGAGACCUAUGAUAUGUUGCUACUACACUCA, the “pre-steady-state target cleavage rate” value was found to be 0.00102 ± 0.0082.

Turning to GGAGACCUAUGAUAUCAGCCUACUACCUCA, the “pre-steady-state target cleavage rate” value came out at 0.000838 ± 0.0061.

As to GGAGACCUAUGAUUACAACCUACUUCCUGA, the “pre-steady-state target cleavage rate” value came to 0.000735 ± 0.0077.

Regarding GGAGACCUAUGAUAACAACCACUACCUCA, the “pre-steady-state target cleavage rate” value is 0.000232 ± 0.013.

As to GGAGACGAUACUAUACAACCUACACCUCA, the “pre-steady-state target cleavage rate” value came to 0.00474 ± 0.0027.

With GGAGUGGAUACUAUACAACCUACUCCUCA, the “pre-steady-state target cleavage rate” value amounted to 0.00475 ± 0.0027.

Take GGAGACCUAUGAUUACAACCUUCUAGCUCA: the “pre-steady-state target cleavage rate” value worked out at 0.000285 ± 0.0092.

On to GGAGACCUAUGAUAUGUUGCUACUACCACA, for which the “pre-steady-state target cleavage rate” value came to 0.000696 ± 0.0042.

For GGAGACCUAUGAUAUCACACCUACUACCUCA, the “pre-steady-state target cleavage rate” value was determined as 0.000112 ± 0.019.

Take GGAGACCUAUGAUAAGAACCAACUACCUCA: the “pre-steady-state target cleavage rate” value was 0.000527 ± 0.011.

Take GGAGACCUAUGAUAUCAACCAACUACCUCA: the “pre-steady-state target cleavage rate” value stood at 0.000261 ± 0.01.

On to GGAGACCUAUGAUUACAACCAACUACCUCA, for which the “pre-steady-state target cleavage rate” value was 0.00145 ± 0.0056.

As to GGAGACCUAUGAAUACAUCGUACUACCUCA, the “pre-steady-state target cleavage rate” value was found to be 0.000258 ± 0.014.

As for GGAGACCUAUGAUAACAACGUACUACGUCA, the “pre-steady-state target cleavage rate” value was 0.000852 ± 0.004.

Take GGAGACCUAAGUAUACUACCUACUACCUCA: the “pre-steady-state target cleavage rate” value came to 0.00191 ± 0.0029.

As for GGAGACCUAUGUAUACAGACCUACUACCUCA, the “pre-steady-state target cleavage rate” value turned out to be 0.000394 ± 0.009.

Turning to GGAGACCUAUGAUAUGUUCCUACUACGUCA, the “pre-steady-state target cleavage rate” value stood at 0.000385 ± 0.0064.

With GGAGACCUAUGAUAUGUUGCUACUACCCCA, the “pre-steady-state target cleavage rate” value is 0.000321 ± 0.013.

For the sequence GGAGACCUAUGAUAACAACCGACUACCUCA, the “pre-steady-state target cleavage rate” value was 0.00133 ± 0.0062.

As for GGAGACCUAUGAUAUCAAUCUACUACCUCA, the “pre-steady-state target cleavage rate” value turned out to be 0.000306 ± 0.0062.

With GGAGACCUAUGAUUACAUGGUACUACCUCA, the “pre-steady-state target cleavage rate” value was determined as 0.000438 ± 0.0063.

As for GGAGACCUAUCUAUACAACCUACAUGCUCA, the “pre-steady-state target cleavage rate” value is 0.000153 ± 0.021.

Regarding GGAGACCUAUGAUAUGUUGCUACUUCGUCA, the “pre-steady-state target cleavage rate” value was found to be 0.000783 ± 0.0057.

Take GGAGACCUAUGAUUACAACCUACAACCACA: the “pre-steady-state target cleavage rate” value was determined as 0.000515 ± 0.019.

As for GGAGACCUAUGAUAACAUCCUACUACGUCA, the “pre-steady-state target cleavage rate” value was 0.000467 ± 0.0052.

GGAGACCUAUGAUAUGUUGGUACCUACCUCA: the “pre-steady-state target cleavage rate” value is 0.000482 ± 0.0067.

As for GGAGACCUAUGAAUACAACCCUACUACCUCA, the “pre-steady-state target cleavage rate” value was found to be 0.00071 ± 0.0093.

As to GGAGACCUAUGAUAACAACCUACUUCGUCA, the “pre-steady-state target cleavage rate” value turned out to be 0.000144 ± 0.014.

Consider GGAGACCAUACUAUACAAGCCUACUACCUCA, for which the “pre-steady-state target cleavage rate” value was found to be 0.00453 ± 0.0032.

On to GGAGACCUAACUAUACACCUACUACCUCA, for which the “pre-steady-state target cleavage rate” value is 0.00586 ± 0.0042.

For the sequence GGAGACCUAUGAUAUGUUGGUACUACAUCA, the “pre-steady-state target cleavage rate” value was determined as 0.000403 ± 0.01.

For the sequence GGAGACCUAUGAUUACAAUCUACUACCUCA, the “pre-steady-state target cleavage rate” value was 0.00159 ± 0.0049.

Take GGAGACCUAUGAUAUCAACCUAGCUACCUCA: the “pre-steady-state target cleavage rate” value was 0.00027 ± 0.015.

Consider GGAGACCUAACUAUACAACCAACAACCUCA, for which the “pre-steady-state target cleavage rate” value was determined as 0.000856 ± 0.01.

For GGAGACCUAUGAUAUCAACGUACUUCCUCA, the “pre-steady-state target cleavage rate” value came out at 0.00101 ± 0.0074.

As to GGAGACCUAUGAUUUCAAGCUACUACCUCA, the “pre-steady-state target cleavage rate” value was 0.000549 ± 0.0041.

As for GGAGACCUAUGAUAACAACCUACUUCCACA, the “pre-steady-state target cleavage rate” value was determined as 0.000141 ± 0.023.
